The target of assay [1] is T1, ASPP2 (apoptosis-stimulating protein of p53 2), endogenous (human (endogenous in Huh7.5 and Huh7)) (UniProt Q13625).
T1 sequence: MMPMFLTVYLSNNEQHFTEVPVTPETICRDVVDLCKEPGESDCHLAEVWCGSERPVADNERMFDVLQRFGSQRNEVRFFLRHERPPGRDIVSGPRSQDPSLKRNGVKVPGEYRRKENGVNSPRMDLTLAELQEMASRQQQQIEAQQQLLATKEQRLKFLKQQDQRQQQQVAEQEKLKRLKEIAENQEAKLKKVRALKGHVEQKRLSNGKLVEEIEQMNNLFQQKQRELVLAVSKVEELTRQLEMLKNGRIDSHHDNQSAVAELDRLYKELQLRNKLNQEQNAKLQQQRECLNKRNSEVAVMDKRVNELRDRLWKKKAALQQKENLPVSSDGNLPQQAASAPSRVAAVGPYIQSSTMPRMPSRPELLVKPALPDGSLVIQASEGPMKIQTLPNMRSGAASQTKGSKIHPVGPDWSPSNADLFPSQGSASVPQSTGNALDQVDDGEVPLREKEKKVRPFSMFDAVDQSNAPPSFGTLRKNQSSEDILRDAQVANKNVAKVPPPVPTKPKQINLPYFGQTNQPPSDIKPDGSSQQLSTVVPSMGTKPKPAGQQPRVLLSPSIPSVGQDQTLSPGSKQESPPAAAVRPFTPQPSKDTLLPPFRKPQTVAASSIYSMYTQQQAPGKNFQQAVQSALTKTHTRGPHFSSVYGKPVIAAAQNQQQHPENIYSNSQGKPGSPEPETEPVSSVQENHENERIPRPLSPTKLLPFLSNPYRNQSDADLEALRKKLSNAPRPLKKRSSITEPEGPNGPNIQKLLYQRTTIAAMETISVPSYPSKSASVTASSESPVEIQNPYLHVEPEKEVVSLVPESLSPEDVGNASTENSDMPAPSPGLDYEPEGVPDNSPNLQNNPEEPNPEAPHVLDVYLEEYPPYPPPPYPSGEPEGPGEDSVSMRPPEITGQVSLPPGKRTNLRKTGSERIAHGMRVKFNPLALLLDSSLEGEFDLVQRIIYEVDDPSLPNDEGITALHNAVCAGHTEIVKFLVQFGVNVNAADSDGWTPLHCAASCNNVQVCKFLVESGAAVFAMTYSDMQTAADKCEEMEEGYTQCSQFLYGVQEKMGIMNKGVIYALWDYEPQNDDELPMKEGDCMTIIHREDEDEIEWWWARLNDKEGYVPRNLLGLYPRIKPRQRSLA
Kind of assay: co-IP.

Chains of the proteins cited; added tags and fusions are not shown. Residues count along the entry.
UniProt Q99IB8, residues 1977-2442: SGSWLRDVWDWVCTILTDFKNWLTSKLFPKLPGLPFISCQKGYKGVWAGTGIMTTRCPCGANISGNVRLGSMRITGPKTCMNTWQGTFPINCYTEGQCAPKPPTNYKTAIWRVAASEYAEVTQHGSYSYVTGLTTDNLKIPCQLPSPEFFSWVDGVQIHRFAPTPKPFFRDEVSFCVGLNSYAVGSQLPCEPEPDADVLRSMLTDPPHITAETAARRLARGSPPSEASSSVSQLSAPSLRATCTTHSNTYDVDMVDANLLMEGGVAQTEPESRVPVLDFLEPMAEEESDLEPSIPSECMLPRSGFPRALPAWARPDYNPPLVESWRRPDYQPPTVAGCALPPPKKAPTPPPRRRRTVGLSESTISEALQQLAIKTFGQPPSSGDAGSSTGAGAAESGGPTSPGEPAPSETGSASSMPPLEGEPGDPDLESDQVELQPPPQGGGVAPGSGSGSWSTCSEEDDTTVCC

Assay [2] has as its target T2, Halo-tagged ASPP1 CTD (887-1090) (UniProt Q96KQ4).
T2 sequence: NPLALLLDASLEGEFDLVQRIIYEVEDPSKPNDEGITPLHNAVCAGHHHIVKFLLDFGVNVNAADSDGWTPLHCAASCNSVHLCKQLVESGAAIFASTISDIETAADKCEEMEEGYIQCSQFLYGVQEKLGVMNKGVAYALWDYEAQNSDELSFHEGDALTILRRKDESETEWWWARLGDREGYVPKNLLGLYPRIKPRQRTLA
Kind of assay: pull-down; only the target purified.

These are yes or no findings as the source states them, for the method shown. Binding seen in cells or lysates may run through a third protein. Some entries that bind do so weakly or less than the wild type. For part of these data: Tags and fused reporters may be left off the sequences shown.

Drawing on article PMC7615710, this text covers binding for three substances.

For “HCV NS5A expressed from the subgenomic replicon N17/JFH (from UniProt Q99IB8 1977-2442)”, in assay [1], the binding entry is listed as “binds”.
With “Myc-tagged HCV [1a.1] NS5A (from UniProt P26664 1973-2420)”, in assay [2], the binding entry is reported as “no binding”.
Turning to “Myc-tagged HCV [1b.Con1] NS5A (from UniProt Q9WMX2 1973-2419)”, the binding entry in assay [2] is given as “no binding”.
